For data set [1], the target named is CEBPB-DDK (UniProt P17676). As to the kind of experiment: EMSA, anti-DDK supershift. The following applies: decidualized hESF nuclear extract; 6 ug nuclear extract plus TF lysate, 50-100 fmol probe, LI-COR binding buffer (composition and pH not given), 1 ug poly(dI-dC), about 2% glycerol; protein in a lysate after overexpression; protein details: DDK; label: 5' IRD700. In general terms: Mobility shift assays separate free from complexed probe on a gel.

The chains behind the UniProt entries cited, without tags or fusion partners. Where a name states a change or a piece, a line headed by the entry shows the natural chain unless it says otherwise.
UniProt P17676: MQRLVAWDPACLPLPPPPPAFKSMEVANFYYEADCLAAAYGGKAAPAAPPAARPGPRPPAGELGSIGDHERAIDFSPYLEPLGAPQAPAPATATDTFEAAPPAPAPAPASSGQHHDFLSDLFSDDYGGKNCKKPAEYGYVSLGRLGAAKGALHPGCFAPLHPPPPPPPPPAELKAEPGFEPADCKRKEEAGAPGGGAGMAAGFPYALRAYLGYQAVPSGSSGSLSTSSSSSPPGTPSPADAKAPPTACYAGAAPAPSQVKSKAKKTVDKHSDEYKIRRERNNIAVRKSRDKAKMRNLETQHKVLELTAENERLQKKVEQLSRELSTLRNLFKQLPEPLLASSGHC
UniProt P31260, whole entry: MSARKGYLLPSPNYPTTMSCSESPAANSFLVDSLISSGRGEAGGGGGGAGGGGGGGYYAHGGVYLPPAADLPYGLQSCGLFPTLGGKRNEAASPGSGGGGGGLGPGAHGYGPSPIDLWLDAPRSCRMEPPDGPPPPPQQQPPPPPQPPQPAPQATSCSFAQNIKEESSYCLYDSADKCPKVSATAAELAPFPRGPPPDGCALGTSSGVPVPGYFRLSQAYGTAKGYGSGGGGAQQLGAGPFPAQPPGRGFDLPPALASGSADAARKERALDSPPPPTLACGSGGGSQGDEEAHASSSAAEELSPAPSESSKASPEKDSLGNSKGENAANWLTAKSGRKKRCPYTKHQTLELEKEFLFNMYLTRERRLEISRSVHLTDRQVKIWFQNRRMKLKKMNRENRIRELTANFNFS

Data set [2] has as its target HOXA10-DDK (UniProt P31260). The data set can be described thus: EMSA, anti-DDK supershift. As to conditions: decidualized hESF nuclear extract; 6 ug nuclear extract plus TF lysate, 50-100 fmol probe, LI-COR binding buffer (composition and pH not given), 1 ug poly(dI-dC), about 2% glycerol; protein in a lysate after overexpression; protein details: DDK; label: 5' IRD700.

The exact form of at least one protein or probe is not confirmed. Results from cells or extracts need not show a direct contact. The comparison behind a weaker result is the experiment's own reference, which may not be listed here.

Regarding “AACCCAAAAGCAAATGCAACAAAAACAAAGATAAATAGC (double strand) [rs7889204 C (non-reference, risk) probe]”, the binding result in data set [1] and in data set [2] was “binds more weakly” in each case.

Consider “AACCCAAAAGCAAATGCAATAAAAACAAAGATAAATAGC (double strand) [rs7889204 T (reference, non-risk) probe]”, for which the binding result in data set [1] and in data set [2] was “binds” each time.
